In publication PMC5591878:

Legend:
[1] = target: T1, MYC::COT1, COT1 kinase with MYC tag (Neurospora crassa) (UniProt P38679); experiment: co-IP; cleared crude N. crassa mycelial extract incubated 2 h at 4°C with anti-MYC or anti-COT1 antibodies, then with A/G PLUS-Agarose overnight at 4°C; the last two washes with 0.5 M NaCl; western blot with anti-COT1, anti-MYC or anti-GFP antibodies
T1 sequence: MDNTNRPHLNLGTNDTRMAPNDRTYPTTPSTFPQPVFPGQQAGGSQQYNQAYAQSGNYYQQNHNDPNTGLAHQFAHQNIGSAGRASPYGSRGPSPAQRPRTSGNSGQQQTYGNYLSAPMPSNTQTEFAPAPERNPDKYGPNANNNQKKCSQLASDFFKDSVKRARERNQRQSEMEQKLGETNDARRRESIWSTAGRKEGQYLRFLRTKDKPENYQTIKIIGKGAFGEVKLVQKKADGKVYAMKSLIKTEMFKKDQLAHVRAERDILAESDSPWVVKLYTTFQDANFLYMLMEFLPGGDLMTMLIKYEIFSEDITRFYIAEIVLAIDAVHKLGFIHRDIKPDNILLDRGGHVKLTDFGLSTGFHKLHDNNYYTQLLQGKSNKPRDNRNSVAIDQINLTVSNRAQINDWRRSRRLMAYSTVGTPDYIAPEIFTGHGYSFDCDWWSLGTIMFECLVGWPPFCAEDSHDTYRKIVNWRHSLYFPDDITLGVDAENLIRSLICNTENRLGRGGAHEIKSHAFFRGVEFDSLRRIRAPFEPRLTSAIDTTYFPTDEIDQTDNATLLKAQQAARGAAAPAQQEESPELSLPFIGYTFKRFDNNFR

[2] = target: B56::GFP, PP2A regulatory subunit B56 fused to GFP (Neurospora crassa); experiment: co-IP; crude N. crassa mycelial extract incubated overnight at 4°C with GFP-Trap magnetic beads; the last two washes with 0.5 M NaCl; western blot with anti-MYC antibodies
[3] = target: RGB1::GFP, PP2A regulatory subunit RGB1 fused to GFP (Neurospora crassa); experiment: as above

- binding [1]: binds
Molecule: B56::GFP, PP2A regulatory subunit B56 fused to GFP (Neurospora crassa)

- binding [1]: binds
Molecule: RGB1::GFP, PP2A regulatory subunit RGB1 fused to GFP (Neurospora crassa)

- binding [2]: binds weakly
- binding [3]: binds
B1: MYC::COT1, COT1 kinase with MYC tag (enzyme, UniProt P38679 1-598)
chain: T1 sequence

Results are given in words; binding and its absence hold for the method and conditions named. In cells and extracts the contact can be indirect. Binding can be weak; no strength is given. Tags and fused reporters may be left off the sequences shown. One block for each molecule: values may come before it.
